From article PMC11286746
Results are given in words; binding and its absence hold for the method and conditions named. For some assays here: Binding seen in cells or lysates may run through a third protein. Some binding calls cover weakened binding; strength is not graded here. Sequences can lack the tags named with a protein.

The chains behind the UniProt entries cited, without tags or fusion partners.
UniProt Q9UNE7: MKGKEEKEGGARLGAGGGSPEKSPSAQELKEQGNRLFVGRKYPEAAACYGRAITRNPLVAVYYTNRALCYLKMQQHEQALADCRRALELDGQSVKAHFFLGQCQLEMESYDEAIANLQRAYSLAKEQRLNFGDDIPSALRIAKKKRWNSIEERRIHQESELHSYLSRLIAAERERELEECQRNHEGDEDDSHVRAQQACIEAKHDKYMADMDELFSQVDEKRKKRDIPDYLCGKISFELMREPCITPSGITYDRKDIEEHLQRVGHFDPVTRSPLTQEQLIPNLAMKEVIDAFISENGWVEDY

Columns and labels:
[1] = target: T1, HA-tagged wild-type BCAT1 (branched-chain amino acid transaminase 1) (UniProt P54687); test: co-IP; U251 cells transfected with HA-BCAT1 and Flag-tagged CHIP (wild type or truncated mutants); NP-40 lysis buffer, 1 ug antibody and protein A/G agarose beads, 4 °C, 8 h; western blot
T1 sequence: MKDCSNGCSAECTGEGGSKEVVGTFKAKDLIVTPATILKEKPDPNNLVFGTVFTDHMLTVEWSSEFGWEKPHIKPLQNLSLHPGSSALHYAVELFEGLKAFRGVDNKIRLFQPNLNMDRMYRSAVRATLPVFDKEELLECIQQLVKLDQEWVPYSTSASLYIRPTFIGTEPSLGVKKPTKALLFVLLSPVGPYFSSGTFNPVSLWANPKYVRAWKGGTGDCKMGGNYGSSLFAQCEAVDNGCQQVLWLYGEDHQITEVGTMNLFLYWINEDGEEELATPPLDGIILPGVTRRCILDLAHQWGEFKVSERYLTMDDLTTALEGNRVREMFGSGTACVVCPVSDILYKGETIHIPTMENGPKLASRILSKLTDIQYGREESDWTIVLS

[2] = target: T2, GST-BCAT1 protein (#Ag4574, Proteintech) (UniProt P54687); test: pull-down; GST or GST-BCAT1 on glutathione magnetic beads incubated with recombinant CHIP protein at 4 °C for 2 h; washed thrice with PBS; western blot; both purified
T2 sequence: T1 sequence

binding [1]	binding [2]	Substance
binds	–	Flag-tagged wild-type CHIP (Carboxyl terminus of Hsc70-interacting protein) (from UniProt Q9UNE7 1-303) (enzyme)
–	binds	recombinant CHIP protein (#HY-P71340, MedChemExpress) (from UniProt Q9UNE7 1-303) (enzyme)
